From article doi:10.1101/2025.03.21.644421 (bioRxiv, 2025)
No constants are given. Whether binding was seen depends on the method and setting. For some of these results: In cells and extracts the contact can be indirect. Some binding calls cover weakened binding; strength is not graded here. Tags and fused reporters may be left off the sequences shown.

What was measured:
[1] = biological target: T1, LetA (N-terminal 6xHis2xQH-TEV tagged LetA) (E. coli) (UniProt P0AD03); experiment: cryo-EM structure
T1 sequence: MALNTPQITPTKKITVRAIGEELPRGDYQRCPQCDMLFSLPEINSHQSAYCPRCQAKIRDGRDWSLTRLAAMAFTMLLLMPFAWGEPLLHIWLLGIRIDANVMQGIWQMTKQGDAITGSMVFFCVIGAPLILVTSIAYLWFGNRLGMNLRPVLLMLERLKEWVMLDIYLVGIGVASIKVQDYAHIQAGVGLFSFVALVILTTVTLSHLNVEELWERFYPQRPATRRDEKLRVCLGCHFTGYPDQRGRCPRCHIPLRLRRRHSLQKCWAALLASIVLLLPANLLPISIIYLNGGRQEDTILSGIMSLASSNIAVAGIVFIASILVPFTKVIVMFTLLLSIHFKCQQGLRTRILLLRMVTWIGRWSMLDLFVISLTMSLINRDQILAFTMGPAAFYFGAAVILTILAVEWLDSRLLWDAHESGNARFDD

[2] = biological target: T1, LetA (N-terminal 6xHis2xQH-TEV tagged LetA) (E. coli); experiment: SEC
[3] = biological target: T1, LetA (N-terminal 6xHis2xQH-TEV tagged LetA) (E. coli); experiment: pull-down
[4] = biological target: T2, LetA D181 to alanine mutant (His-tagged) (E. coli) (UniProt P0AD03); experiment: pull-down
T2 sequence: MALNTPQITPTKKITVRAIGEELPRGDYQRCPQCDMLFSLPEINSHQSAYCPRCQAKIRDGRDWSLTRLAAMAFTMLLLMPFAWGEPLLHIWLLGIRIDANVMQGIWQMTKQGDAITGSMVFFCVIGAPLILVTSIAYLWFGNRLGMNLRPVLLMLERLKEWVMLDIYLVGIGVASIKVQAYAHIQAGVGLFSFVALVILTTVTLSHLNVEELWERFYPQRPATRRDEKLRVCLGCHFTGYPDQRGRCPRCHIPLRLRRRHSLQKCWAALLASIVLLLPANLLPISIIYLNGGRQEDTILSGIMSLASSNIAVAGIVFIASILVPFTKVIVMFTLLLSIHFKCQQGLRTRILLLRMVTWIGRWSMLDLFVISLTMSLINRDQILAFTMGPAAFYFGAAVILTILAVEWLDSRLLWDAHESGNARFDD

[5] = biological target: T3, LetA D367 to alanine mutant (His-tagged) (E. coli) (UniProt P0AD03); experiment: pull-down
T3 sequence: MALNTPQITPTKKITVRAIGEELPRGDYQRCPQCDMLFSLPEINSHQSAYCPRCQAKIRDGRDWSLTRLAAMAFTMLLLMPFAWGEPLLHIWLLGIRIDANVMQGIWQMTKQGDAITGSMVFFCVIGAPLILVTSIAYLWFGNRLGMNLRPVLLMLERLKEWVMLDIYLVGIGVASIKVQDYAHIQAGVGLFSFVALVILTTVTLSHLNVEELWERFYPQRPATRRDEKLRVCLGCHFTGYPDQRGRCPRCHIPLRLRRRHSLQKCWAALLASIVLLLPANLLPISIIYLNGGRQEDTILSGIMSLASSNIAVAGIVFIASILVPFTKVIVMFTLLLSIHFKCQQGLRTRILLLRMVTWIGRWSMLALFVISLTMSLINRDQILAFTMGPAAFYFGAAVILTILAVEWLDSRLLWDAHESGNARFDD

[6] = biological target: T4, LetA K178 to alanine mutant (His-tagged) (E. coli) (UniProt P0AD03); experiment: pull-down
T4 sequence: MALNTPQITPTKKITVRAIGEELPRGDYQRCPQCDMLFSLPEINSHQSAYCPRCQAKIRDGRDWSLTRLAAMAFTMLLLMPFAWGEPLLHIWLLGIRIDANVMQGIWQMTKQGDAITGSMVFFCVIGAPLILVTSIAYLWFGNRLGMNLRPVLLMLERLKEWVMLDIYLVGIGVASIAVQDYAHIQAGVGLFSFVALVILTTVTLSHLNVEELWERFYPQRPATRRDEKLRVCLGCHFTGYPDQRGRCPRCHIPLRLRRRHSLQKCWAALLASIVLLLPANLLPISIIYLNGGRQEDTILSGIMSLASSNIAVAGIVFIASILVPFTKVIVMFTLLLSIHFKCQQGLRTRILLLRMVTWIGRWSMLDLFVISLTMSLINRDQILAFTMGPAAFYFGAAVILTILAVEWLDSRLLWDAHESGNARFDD

[7] = biological target: T5, LetA K328 to alanine mutant (His-tagged) (E. coli) (UniProt P0AD03); experiment: pull-down
T5 sequence: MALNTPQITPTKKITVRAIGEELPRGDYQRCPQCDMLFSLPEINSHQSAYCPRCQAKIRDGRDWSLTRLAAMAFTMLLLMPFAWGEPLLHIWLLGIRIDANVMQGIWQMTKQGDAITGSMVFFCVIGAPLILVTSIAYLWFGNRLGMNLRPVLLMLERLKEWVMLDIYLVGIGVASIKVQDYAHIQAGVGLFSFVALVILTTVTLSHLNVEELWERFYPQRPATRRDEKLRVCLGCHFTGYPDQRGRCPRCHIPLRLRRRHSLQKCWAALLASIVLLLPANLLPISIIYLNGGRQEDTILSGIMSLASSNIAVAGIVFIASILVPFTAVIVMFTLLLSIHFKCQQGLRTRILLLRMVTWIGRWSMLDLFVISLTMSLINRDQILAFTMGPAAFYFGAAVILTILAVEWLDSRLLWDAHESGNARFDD

[8] = biological target: T6, LetA S321 to alanine mutant (His-tagged) (E. coli) (UniProt P0AD03); experiment: pull-down
T6 sequence: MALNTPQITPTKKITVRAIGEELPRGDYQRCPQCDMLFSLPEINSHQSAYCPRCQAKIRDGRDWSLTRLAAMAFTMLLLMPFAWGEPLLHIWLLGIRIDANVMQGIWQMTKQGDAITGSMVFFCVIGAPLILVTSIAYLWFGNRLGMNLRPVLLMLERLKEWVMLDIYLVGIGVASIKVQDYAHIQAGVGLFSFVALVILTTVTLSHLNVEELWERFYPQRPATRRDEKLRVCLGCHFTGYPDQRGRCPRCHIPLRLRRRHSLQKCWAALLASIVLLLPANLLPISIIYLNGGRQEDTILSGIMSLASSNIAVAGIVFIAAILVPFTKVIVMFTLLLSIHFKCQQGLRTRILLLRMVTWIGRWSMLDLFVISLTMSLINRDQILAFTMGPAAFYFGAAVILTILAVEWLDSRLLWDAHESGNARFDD

[9] = biological target: T7, LetA S364 to alanine mutant (His-tagged) (E. coli) (UniProt P0AD03); experiment: pull-down
T7 sequence: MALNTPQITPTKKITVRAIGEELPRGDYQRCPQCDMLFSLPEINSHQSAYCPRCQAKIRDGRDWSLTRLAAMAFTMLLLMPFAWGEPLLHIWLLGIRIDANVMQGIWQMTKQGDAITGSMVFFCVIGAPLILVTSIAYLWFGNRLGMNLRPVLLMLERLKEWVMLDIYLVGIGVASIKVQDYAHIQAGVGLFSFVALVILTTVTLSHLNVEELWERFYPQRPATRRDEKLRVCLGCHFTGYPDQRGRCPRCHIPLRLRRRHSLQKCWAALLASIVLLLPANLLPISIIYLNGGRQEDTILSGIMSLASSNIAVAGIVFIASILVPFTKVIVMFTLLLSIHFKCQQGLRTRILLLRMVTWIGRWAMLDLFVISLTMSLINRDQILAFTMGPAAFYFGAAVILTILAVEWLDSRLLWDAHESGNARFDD

[10] = biological target: T8, LetA T402 to alanine mutant (His-tagged) (E. coli) (UniProt P0AD03); experiment: pull-down
T8 sequence: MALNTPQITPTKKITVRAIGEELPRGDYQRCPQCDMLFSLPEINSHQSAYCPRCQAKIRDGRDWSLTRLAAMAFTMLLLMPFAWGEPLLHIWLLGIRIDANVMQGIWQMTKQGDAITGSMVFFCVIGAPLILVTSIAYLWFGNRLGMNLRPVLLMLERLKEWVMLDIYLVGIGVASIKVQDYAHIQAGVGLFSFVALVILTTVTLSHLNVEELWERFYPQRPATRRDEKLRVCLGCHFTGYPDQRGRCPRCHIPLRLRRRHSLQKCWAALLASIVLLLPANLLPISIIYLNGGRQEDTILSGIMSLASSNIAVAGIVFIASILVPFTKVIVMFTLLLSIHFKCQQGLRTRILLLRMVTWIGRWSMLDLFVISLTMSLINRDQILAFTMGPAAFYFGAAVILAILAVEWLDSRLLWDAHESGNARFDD

binding [1]: binds
binding [2]: binds
binding [3]: binds
binding [4]: binds
binding [5]: binds
binding [6]: binds
binding [7]: binds
binding [8]: binds
binding [9]: binds
binding [10]: binds
B1: LetB (Lipophilic Envelope-spanning Tunnel B), untagged (natural protein, E. coli, UniProt P76272 1-877, looked up)
chain: MSQETPASTTEAQIKNKRRISPFWLLPFIALMIASWLIWDSYQDRGNTVTIDFMSADGIVPGRTPVRYQGVEVGTVQDISLSDDLRKIEVKVSIKSDMKDALREETQFWLVTPKASLAGVSGLDALVGGNYIGMMPGKGKEQDHFVALDTQPKYRLDNGDLMIHLQAPDLGSLNSGSLVYFRKIPVGKVYDYAINPNKQGVVIDVLIERRFTDLVKKGSRFWNVSGVDANVSISGAKVKLESLAALVNGAIAFDSPEESKPAEAEDTFGLYEDLAHSQRGVIIKLELPSGAGLTADSTPLMYQGLEVGQLTKLDLNPGGKVTGEMTVDPSVVTLLRENTRIELRNPKLSLSDANLSALLTGKTFELVPGDGEPRKEFVVVPGEKALLHEPDVLTLTLTAPESYGIDAGQPLILHGVQVGQVIDRKLTSKGVTFTVAIEPQHRELVKGDSKFVVNSRVDVKVGLDGVEFLGASASEWINGGIRILPGDKGEMKASYPLYANLEKALENSLSDLPTTTVSLSAETLPDVQAGSVVLYRKFEVGEVITVRPRANAFDIDLHIKPEYRNLLTSNSVFWAEGGAKVQLNGSGLTVQASPLSRALKGAISFDNLSGASASQRKGDKRILYASETAARAVGGQITLHAFDAGKLAVGMPIRYLGIDIGQIQTLDLITARNEVQAKAVLYPEYVQTFARGGTRFSVVTPQISAAGVEHLDTILQPYINVEPGRGNPRRDFELQEATITDSRYLDGLSIIVEAPEAGSLGIGTPVLFRGLEVGTVTGMTLGTLSDRVMIAMRISKRYQHLVRNNSVFWLASGYSLDFGLTGGVVKTGTFNQFIRGGIAFATPPGTPLAPKAQEGKHFLLQESEPKEWREWGTALPK
